These are yes or no findings as the source states them, for the method shown. Some entries that bind do so weakly or less than the wild type.
What was measured:
[1] = biological target: Human recombinant RAGE (hrRAGE), soluble RAGE (human) (UniProt Q15109); experiment: SPR (BIAcore T200), sRAGE immobilised on a CM5 chip, sequential multiple injections of HMGB1 500 nM and C1q 200 nM, both orders; in the left panel HMGB1 meets the sRAGE-C1q complex
[2] = biological target: Human recombinant RAGE (hrRAGE), soluble RAGE (human) (UniProt Q15109); experiment: SPR, sRAGE immobilized on a CM5 chip; HMGB1 (500 nM) injected before or after C1q (200 nM)
[3] = biological target: Human recombinant RAGE (hrRAGE), soluble RAGE (human) (UniProt Q15109); experiment: SPR and bead pull-down (legend of FIG. 3)

Amino acid sequences for entries named in this document (tags omitted). Residues count along the entry.
UniProt Q15109, residues 24-344: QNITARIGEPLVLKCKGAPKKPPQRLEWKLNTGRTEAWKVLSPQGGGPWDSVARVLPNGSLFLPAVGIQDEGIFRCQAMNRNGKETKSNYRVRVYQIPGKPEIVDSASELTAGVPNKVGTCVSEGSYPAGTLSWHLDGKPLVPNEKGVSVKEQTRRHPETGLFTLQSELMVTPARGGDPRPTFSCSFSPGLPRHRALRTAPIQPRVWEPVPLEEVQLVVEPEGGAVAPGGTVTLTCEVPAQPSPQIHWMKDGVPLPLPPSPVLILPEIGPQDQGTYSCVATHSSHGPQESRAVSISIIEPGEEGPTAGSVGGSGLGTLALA
UniProt P09429: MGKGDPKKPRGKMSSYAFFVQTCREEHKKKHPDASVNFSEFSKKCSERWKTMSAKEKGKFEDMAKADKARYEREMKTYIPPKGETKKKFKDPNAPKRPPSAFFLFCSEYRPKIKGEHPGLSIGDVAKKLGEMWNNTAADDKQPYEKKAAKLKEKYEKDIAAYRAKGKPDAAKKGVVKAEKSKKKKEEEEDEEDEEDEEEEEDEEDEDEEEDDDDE

Measured: binding

Recombinant HMGB1 (Calmodulin Binding Protein Epitope, Cbp tagged) (from UniProt P09429 1-215) (ligand)
binds: all assays above
